The results in this text go back to publication PMC6731260.

Assay [1] concerns the target T1, FLAG-ESRRB stably expressed in mESCs (pCDH-EF1-FLAG-ESRRB^WT-T2A-copGFP) (mouse) (UniProt Q61539).
T1 sequence: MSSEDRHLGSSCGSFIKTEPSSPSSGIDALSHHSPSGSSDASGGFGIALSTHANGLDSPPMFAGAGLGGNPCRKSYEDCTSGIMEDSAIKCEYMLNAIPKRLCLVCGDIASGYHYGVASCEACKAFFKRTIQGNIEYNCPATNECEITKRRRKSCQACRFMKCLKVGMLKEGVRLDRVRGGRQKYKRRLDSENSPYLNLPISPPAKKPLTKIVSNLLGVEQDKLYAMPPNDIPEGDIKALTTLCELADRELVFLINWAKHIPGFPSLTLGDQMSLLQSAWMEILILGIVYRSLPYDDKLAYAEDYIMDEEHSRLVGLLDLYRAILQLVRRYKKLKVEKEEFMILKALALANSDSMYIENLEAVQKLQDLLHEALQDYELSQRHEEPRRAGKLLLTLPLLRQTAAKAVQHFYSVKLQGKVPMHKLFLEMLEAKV
As to the kind of experiment: co-IP; R1 mESCs stably expressing FLAG-ESRRB or FLAG-ESRRB^S25A; Sucrose-NP40 lysate with FLAG-magnetic beads, 4 °C, 2 h; endogenous OCT4 and NANOG detected by immunoblot.

The target of assay [2] is T2, FLAG-ESRRB^S25A stably expressed in mESCs (pCDH-EF1-FLAG-ESRRB^S25A-T2A-copGFP) (mouse) (UniProt Q61539).
T2 sequence: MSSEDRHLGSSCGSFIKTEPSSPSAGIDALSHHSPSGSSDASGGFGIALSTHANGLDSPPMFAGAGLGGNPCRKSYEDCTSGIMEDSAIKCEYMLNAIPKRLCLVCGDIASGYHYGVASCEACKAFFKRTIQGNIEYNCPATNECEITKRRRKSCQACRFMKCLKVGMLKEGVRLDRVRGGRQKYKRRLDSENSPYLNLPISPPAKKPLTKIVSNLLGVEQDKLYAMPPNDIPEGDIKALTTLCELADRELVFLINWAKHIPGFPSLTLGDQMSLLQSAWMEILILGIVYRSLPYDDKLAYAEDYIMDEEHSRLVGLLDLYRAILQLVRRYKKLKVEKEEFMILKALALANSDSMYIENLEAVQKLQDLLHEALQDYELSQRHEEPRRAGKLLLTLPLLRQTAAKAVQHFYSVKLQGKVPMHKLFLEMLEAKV
Described as above.

No constants are given. Whether binding was seen depends on the method and setting. In cells and extracts the contact can be indirect. Some binding calls cover weakened binding; strength is not graded here. Sequences can lack the tags named with a protein.

B1: NANOG, endogenous in mESCs (protein, UniProt Q80Z64 1-305)
chain: MSVGLPGPHSLPSSEEASNSGNASSMPAVFHPENYSCLQGSATEMLCTEAASPRPSSEDLPLQGSPDSSTSPKQKLSSPEADKGPEEEENKVLARKQKMRTVFSQAQLCALKDRFQKQKYLSLQQMQELSSILNLSYKQVKTWFQNQRMKCKRWQKNQWLKTSNGLIQKGSAPVEYPSIHCSYPQGYLVNASGSLSMWGSQTWTNPTWSSQTWTNPTWNNQTWTNPTWSSQAWTAQSWNGQPWNAAPLHNFGEDFLQPYVQLQQNFSASDLEVNLEATRESHAHFSTPQALELFLNYSVTPPGEI
For B1, the binding entry in assay [1] and in assay [2] was “binds” in each case.
